Experimental data: the supplement of paper PMC7666118
This is one part of the list.

Sequences of proteins named here, by UniProt entry; tags and fusion partners are left off. A change or cut given only in a name is not applied to a line headed by its entry.
UniProt Q9Y320, whole entry: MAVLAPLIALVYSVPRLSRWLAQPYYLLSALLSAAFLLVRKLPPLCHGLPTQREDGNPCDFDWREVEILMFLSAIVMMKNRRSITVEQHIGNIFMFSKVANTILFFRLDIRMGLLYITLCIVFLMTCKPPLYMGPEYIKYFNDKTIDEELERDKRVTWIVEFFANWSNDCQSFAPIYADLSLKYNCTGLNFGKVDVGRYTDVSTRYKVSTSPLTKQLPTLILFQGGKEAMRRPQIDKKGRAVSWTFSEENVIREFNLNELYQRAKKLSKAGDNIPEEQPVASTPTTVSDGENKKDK
UniProt O75083: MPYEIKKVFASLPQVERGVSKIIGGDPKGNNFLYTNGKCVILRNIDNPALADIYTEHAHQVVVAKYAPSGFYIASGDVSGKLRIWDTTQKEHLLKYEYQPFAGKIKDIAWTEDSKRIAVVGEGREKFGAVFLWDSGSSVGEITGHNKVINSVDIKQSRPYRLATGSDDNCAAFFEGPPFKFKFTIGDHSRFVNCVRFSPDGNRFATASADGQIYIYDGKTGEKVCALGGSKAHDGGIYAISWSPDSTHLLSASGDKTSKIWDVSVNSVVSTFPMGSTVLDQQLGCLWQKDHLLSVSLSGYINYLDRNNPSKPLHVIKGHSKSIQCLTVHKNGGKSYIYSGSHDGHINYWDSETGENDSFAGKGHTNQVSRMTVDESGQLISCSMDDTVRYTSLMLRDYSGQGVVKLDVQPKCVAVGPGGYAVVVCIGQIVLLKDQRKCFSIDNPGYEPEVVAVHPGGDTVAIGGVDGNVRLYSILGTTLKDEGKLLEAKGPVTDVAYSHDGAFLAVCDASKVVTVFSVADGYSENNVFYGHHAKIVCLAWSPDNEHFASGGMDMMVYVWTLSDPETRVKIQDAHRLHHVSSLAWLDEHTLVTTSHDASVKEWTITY
UniProt Q9BSJ2, whole entry: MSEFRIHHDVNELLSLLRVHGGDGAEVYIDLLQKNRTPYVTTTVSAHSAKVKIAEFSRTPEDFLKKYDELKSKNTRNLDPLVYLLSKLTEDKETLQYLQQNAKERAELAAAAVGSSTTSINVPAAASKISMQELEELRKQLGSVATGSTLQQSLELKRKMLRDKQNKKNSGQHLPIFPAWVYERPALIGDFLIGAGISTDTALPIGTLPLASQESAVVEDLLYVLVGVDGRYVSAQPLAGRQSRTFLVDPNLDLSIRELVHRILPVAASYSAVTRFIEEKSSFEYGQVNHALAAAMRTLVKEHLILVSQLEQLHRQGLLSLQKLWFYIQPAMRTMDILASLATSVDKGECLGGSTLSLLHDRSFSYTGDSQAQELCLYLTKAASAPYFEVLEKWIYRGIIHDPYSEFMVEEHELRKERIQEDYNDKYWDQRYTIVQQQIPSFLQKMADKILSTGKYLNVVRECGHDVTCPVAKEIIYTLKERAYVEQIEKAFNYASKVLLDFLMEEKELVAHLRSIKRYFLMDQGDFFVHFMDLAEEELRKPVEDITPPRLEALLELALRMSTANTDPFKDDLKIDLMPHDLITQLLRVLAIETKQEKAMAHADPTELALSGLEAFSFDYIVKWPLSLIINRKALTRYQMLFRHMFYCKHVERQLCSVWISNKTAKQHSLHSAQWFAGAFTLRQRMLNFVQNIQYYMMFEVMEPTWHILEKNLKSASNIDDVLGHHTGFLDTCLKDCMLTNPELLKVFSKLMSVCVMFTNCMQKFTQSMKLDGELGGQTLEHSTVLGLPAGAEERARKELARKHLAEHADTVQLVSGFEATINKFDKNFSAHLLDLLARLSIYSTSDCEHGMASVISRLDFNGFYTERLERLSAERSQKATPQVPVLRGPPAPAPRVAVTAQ
UniProt Q9HA47: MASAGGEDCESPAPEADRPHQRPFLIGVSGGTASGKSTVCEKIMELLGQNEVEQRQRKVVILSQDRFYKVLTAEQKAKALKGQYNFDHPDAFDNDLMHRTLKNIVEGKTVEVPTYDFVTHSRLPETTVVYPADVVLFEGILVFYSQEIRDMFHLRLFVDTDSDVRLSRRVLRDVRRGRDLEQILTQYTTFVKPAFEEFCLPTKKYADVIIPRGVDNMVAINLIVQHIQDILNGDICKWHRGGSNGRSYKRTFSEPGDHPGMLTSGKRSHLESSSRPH
UniProt P10599: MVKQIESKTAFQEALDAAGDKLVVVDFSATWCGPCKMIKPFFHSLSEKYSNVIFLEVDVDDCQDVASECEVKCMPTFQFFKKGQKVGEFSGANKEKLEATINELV
UniProt Q8WVY7: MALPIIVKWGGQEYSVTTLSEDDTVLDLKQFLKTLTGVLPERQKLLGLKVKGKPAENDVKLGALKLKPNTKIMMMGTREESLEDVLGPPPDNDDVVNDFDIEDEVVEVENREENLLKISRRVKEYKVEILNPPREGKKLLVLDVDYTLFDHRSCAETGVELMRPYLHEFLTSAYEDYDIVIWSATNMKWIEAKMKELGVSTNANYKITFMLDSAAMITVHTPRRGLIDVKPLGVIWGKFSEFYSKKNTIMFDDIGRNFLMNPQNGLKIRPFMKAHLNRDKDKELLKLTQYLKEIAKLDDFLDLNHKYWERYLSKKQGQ
UniProt Q9UHD9, whole entry: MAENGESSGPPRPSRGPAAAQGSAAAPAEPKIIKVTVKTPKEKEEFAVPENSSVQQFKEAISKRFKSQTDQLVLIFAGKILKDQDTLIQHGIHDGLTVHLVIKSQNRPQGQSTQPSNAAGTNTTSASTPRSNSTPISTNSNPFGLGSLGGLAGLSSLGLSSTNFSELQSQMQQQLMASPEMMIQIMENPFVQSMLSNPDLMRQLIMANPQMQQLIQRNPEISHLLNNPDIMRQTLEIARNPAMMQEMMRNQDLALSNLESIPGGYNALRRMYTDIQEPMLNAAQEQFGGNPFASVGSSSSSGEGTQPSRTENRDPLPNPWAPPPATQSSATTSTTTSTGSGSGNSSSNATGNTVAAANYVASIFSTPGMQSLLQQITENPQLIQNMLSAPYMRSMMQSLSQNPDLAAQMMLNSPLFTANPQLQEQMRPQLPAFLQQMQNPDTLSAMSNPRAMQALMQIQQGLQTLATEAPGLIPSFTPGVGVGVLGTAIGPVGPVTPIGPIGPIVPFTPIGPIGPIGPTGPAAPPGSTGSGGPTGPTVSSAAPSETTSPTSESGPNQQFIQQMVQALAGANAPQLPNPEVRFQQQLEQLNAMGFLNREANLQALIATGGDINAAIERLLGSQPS
UniProt P83876: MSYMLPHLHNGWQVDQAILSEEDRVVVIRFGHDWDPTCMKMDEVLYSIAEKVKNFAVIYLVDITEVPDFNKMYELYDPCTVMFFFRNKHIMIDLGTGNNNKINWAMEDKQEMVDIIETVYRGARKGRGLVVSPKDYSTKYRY
UniProt P31930: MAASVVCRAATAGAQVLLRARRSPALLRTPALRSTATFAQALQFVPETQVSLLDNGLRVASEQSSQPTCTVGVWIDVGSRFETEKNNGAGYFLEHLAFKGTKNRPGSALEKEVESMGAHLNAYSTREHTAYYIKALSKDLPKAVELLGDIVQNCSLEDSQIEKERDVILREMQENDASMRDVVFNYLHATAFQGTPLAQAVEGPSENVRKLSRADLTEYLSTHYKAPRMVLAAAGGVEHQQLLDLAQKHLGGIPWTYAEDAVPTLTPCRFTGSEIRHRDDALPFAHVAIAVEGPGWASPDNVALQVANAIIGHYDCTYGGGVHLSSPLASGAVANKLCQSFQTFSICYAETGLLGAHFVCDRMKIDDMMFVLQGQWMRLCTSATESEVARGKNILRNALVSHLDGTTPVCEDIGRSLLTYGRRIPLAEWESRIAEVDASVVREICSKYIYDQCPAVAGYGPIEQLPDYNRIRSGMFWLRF
UniProt Q9NRR5, whole entry: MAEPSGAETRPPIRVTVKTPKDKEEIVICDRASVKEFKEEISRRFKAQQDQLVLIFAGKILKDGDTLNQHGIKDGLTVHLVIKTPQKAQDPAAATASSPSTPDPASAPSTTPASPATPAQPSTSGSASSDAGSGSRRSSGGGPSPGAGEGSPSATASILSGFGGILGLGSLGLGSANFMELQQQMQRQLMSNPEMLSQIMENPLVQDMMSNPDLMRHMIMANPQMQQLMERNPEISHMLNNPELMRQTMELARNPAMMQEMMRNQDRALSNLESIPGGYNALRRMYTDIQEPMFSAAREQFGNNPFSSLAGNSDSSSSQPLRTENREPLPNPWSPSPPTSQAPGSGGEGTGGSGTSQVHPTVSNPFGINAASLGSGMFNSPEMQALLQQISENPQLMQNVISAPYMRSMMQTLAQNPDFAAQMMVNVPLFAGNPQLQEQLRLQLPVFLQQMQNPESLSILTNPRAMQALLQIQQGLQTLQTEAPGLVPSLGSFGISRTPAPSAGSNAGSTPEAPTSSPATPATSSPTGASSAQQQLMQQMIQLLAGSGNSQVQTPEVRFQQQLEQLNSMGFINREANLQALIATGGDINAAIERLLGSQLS
UniProt Q9Y277: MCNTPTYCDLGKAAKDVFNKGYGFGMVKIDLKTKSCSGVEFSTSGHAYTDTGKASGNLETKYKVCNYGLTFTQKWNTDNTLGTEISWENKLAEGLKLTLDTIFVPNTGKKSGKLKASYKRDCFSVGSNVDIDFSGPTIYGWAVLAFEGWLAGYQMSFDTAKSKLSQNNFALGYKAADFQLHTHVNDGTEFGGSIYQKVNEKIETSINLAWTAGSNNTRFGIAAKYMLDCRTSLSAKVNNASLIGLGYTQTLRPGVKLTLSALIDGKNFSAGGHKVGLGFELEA
UniProt Q9Y5T5, whole entry, looked up: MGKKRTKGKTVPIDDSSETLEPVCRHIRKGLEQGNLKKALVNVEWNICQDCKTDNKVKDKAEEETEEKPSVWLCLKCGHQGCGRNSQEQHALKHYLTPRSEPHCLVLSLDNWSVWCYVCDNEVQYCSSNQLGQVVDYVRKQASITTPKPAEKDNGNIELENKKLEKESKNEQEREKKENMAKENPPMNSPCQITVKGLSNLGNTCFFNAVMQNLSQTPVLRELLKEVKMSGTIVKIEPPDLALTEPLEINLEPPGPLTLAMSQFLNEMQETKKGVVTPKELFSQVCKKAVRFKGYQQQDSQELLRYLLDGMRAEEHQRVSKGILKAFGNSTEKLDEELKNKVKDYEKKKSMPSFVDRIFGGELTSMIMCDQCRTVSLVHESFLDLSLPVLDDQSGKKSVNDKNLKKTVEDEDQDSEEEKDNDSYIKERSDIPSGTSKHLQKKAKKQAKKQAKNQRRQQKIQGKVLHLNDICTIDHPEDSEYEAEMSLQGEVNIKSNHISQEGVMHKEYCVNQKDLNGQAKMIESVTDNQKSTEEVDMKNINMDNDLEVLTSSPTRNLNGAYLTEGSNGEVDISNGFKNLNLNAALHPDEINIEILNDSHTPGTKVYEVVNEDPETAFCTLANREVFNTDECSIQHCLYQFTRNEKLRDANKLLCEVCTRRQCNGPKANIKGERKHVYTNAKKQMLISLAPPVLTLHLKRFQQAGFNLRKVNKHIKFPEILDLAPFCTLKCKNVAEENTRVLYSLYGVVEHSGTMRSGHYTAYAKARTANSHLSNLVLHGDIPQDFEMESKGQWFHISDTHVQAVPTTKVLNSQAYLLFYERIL
UniProt O95292, whole entry: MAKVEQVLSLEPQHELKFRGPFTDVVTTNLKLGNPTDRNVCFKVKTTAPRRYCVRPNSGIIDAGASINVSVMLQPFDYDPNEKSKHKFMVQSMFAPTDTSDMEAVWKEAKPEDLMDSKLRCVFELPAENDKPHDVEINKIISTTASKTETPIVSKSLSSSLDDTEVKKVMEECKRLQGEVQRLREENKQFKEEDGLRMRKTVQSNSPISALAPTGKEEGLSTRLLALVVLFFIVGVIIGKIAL
UniProt Q8N584: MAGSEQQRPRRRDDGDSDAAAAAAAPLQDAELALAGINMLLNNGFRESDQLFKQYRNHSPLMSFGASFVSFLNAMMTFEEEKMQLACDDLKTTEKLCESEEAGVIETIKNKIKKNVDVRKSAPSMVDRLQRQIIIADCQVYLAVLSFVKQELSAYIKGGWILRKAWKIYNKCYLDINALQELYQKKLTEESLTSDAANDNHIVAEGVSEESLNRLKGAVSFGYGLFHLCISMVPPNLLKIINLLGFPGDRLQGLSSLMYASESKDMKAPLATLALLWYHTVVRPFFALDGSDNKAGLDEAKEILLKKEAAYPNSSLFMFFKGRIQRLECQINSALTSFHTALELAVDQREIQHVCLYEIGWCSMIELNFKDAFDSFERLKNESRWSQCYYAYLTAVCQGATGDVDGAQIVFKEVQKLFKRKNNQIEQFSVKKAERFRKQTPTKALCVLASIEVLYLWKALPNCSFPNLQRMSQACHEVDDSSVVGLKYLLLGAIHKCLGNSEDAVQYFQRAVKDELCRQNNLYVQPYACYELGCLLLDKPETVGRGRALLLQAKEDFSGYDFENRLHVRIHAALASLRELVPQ
UniProt A6NIH7: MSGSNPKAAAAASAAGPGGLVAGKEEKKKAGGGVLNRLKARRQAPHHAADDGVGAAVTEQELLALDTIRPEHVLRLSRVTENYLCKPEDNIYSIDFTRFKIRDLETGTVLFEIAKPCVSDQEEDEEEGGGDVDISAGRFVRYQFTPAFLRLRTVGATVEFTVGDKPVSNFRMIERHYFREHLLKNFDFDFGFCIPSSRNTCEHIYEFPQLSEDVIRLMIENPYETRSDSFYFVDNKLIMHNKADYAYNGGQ

Compound: COc1ccc(Cn2ccc3cc(C)c(C(=O)NO)cc32)cc1
Assay: dose-dependent thermal stabilisation call (2D-TPP, DLPTP, 10% FDR) (binary (1 = stabilised)); higher = stabilised by the compound
Settings: system: HL-60 intact cells; concentration range 0.04-10 µM
Description: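 2D thermal proteome profiling in intact HL-60 cells treated with BRD-3811 (0, 0.04, 0.29, 2, 10 uM) for 90 min at 37 C, then heated 3 min at one of 12 temperatures (42-63.9 C). Soluble protein was quantified by TMT10 MS. The value is the DLPTP call of the paper: dose-dependent thermal stabilisation over all temperatures at 10% FDR (F-test of a dose-response against a flat model); one experiment, one call per tested protein.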

Target	dose-dependent thermal stabilisation call
TTC27 (UniProt Q6P3X3)	inactive: 0
VPS16 (UniProt Q9H269)	inactive: 0
UPF3B (UniProt Q9BZI7)	inactive: 0
TXNDC14 (UniProt Q9Y320)	inactive: 0
WDR1 (UniProt O75083)	inactive: 0
UBE2S (UniProt Q16763)	inactive: 0
USP39 (UniProt Q53GS9)	inactive: 0
TUBGCP2 (UniProt Q9BSJ2)	inactive: 0
TTC4 (UniProt O95801)	inactive: 0
UBQLN1 (UniProt Q9UMX0)	inactive: 0
UCK1 (UniProt Q9HA47)	inactive: 0
UBE2A (UniProt P49459)	inactive: 0
UNC45A (UniProt Q9H3U1)	inactive: 0
USP7 (UniProt Q93009)	inactive: 0
UBA7 (UniProt P41226)	inactive: 0
TXN (UniProt P10599)	inactive: 0
VPS35 (UniProt Q96QK1)	inactive: 0
UBLCP1 (UniProt Q8WVY7)	inactive: 0

Target	dose-dependent thermal stabilisation call
UBQLN2 (UniProt Q9UHD9)	inactive: 0
TUSC4 (UniProt Q8WTW4)	inactive: 0
VPS52 (UniProt Q8N1B4)	inactive: 0
VCP (UniProt P55072)	inactive: 0
TXNL4A (UniProt P83876)	inactive: 0
UQCRC1 (UniProt P31930)	inactive: 0
UBQLN4 (UniProt Q9NRR5)	inactive: 0
VDAC3 (UniProt Q9Y277)	inactive: 0
UBE2M (UniProt P61081)	inactive: 0
VTI1A (UniProt Q96AJ9)	inactive: 0
USP16 (UniProt Q9Y5T5)	inactive: 0
VPS41 (UniProt P49754)	inactive: 0
USP19 (UniProt O94966)	inactive: 0
VAPB (UniProt O95292)	inactive: 0
TTC39C (UniProt Q8N584)	inactive: 0
UNC119B (UniProt A6NIH7)	inactive: 0
TUBG1 (UniProt P23258)	inactive: 0

Single entries from the list.
Value for TTC39C (UniProt Q8N584) under dose-dependent thermal stabilisation call: inactive: 0
Value for VPS52 (UniProt Q8N1B4) under dose-dependent thermal stabilisation call: inactive: 0
